Results are given in words; binding and its absence hold for the method and conditions named. Binding seen in cells or lysates may run through a third protein. Binding calls can cover weak binding; strength is not graded here. Sequences can lack the tags named with a protein.
Tests used:
GFP-BICD1^WT (human) = target: T1, GFP-BICD1^WT (human) (UniProt Q96G01); test: co-IP; GFP-Trap M beads; lysate of N2A-FLAG-TrkB cells co-transfected with HA-PTPN23 and GFP-BICD1 variants, 0.2% NP-40 lysis buffer, 2 h at 4°C; anti-HA and anti-GFP blots
T1 sequence: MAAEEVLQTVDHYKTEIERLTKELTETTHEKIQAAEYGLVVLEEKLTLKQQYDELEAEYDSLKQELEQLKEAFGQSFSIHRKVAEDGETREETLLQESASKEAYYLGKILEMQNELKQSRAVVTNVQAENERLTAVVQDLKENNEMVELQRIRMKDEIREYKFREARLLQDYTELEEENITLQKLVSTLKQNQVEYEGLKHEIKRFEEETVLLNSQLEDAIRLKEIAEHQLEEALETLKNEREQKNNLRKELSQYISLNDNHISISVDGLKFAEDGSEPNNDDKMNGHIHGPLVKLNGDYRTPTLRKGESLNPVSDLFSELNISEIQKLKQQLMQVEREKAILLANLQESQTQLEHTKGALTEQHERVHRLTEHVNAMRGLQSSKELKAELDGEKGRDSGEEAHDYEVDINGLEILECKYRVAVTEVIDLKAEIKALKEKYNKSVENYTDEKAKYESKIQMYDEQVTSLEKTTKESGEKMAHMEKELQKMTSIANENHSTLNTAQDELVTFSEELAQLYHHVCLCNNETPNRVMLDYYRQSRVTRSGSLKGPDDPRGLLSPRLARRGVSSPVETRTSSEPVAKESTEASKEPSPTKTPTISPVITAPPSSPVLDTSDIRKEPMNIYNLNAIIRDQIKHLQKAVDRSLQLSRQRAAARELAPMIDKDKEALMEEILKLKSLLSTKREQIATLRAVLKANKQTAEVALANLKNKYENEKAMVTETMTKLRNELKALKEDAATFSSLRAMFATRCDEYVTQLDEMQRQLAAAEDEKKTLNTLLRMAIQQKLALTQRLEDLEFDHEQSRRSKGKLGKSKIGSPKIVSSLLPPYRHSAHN

GST-CC1^95-265 (human) [1] = target: T2, GST-CC1^95-265 (human) (UniProt Q96G01); test: pull-down; GST-BICD1 fusion proteins on GSH resin, incubated 2 h at 4°C with N2A-FLAG-TrkB lysate containing overexpressed HA-PTPN23 in 0.4% NP-40 lysis buffer; anti-HA blot; only the target purified
T2 sequence: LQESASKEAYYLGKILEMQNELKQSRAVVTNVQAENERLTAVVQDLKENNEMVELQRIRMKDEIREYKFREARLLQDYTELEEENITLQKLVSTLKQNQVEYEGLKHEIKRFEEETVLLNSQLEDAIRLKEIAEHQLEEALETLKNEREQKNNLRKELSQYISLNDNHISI

GST-CC1^95-265 (human) [2] = target: T2, GST-CC1^95-265 (human); test: pull-down; GST-CC1^95-265 or GST on GSH resin, incubated 2 h at 4°C with bacterial extracts containing His6-PTPN23 fragments in lysis buffer; anti-His6 blot; only the target purified

Row | binding (GFP-BICD1^WT (human)) | Substance | binding (GST-CC1^95-265 (human) [1]) | binding (GST-CC1^95-265 (human) [2])
1 | binds | HA-PTPN23 (human) | binds | –
2 | – | His-V/CC^401-653 (human) (domain or fragment) | – | binds
